# According to PubChem BioAssay AID445 (National Center for Advancing Translational Sciences (NCATS), 2006):
# The list shows a part of the results. The main result of the screen is listed elsewhere. These columns were measured beside it and carry no call. Most of these compounds were active or inconclusive in the main read-out, so they are no random draw. Words in brackets tell the shape of the fitted curve; partial curves, single points and poor fits give uncertain potencies.
# Experiment: IkB Signaling
# Settings: ABC-DLBCL IkBa-CBG/CBR dual luciferase ratio (green luciferase fused to IkBa over red control in OCI-Ly3 lymphoma cells), 4 h
# Summary of the method: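 In this assay, an IκBα–CBG68 fusion accumulates when IKK-driven degradation is blocked; native CBR normalizes for cell number. OCI-Ly3 cells were treated 4 h with compound and doxycycline, then green and red light read after Chroma-Glo addition.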
# [1] = measured here: control luc red channel unless noted
structure (smiles),measurement,setting,value
Cc1nc(-c2ccc(Cl)cc2)sc1CCNC(=O)C(=O)Nc1ccc2c(c1)OCCO2,AC50,[1],"0.02 µM [rising, full curve]"
O=C(CSc1nc(=O)n(Cc2cccnc2)c2c1CCC2)Nc1cccc(Cl)c1,AC50,[1],"10 µM [falling, partial curve]"
Cc1ccc(Nc2nc(CSc3nnc(-c4cccs4)o3)cs2)cc1,AC50,[1],"25.1 µM [falling, single point]"
COc1cccc(-n2c(=O)c3c(C)c(C(=O)N(C)C)sc3n(Cc3cccc(C)c3)c2=O)c1,AC50,[1],"3.16 µM [rising, full curve]"
COc1ccc(-c2nc(C)c(CCNC(=O)C(=O)Nc3ccccc3F)s2)cc1,AC50,[1],"1.26 µM [rising, full curve]"
O=C(CNC(=O)c1ccccc1C(=O)O)c1ccccc1,AC50,[1],"1 µM [falling, partial curve]"
COc1ccc(CCN2CCC(CNC(=O)c3cnn(-c4ccc(C)cc4)c3C3CCN(C(=O)OC(C)(C)C)CC3)CC2)cc1,AC50,[1],"25.1 µM [falling, single point]"
CC(=O)Nc1cccc(NC(=O)CSc2ncc(-c3ccc(Cl)cc3)n2Cc2ccco2)c1,AC50,[1],"7.94 µM [falling, full curve]"
COc1ccc(C2CC(=O)N(Cc3ccccc3C)c3c2c(C)nn3-c2nc(C)cc(C)n2)c(OC)c1 (configuration not stated),AC50,[1],"12.6 µM [falling, single point]"
COc1ccc(-c2nc3c4ccccc4n(CC(=O)Nc4ccc(C(C)C)cc4)c(=O)n3n2)cc1,AC50,[1],"3.98 µM [rising, single point]"
O=C(c1cccc(-c2nnc(-c3ccccc3)o2)c1)N1CCCCC1,AC50,[1],"31.6 µM [falling, single point]"
Cc1ccccc1-n1c(SCC(=O)Nc2ccc(Cl)cc2Cl)nc(O)cc1=O,AC50,[1],"20 µM [falling, single point]"
Cc1cccc(N(C)S(=O)(=O)c2ccc(-c3cc(C)no3)s2)c1,AC50,measured here: IkB-luc green channel,"15.8 µM [rising, partial curve]"
same,AC50,measured here: control luc red channel,"3.16 µM [rising, partial curve]"
CCc1sc(Nc2cccc(C)c2)nc1-c1cc2cccc(OC)c2oc1=O,AC50,[1],"7.94 µM [falling, full curve]"
Cc1ccc(S(=O)(=O)N2CCc3cc(C(=O)N(C)Cc4ccccc4)ccc32)cc1,AC50,[1],"25.1 µM [falling, single point]"
COc1ccc(S(=O)(=O)c2c(O)c(C)cc(NS(=O)(=O)c3ccc(Cl)cc3)c2C(C)C)cc1,AC50,[1],"12.6 µM [falling, partial curve]"
Cc1ccc2c(c1)C(c1ccccc1)N(C(=O)c1ccc(S(=O)(=O)N3CCCC3)cc1)CC(=O)N2 (configuration not stated),AC50,[1],"1 µM [falling, partial curve]"
Nc1nc(NC(=O)c2cccnc2)nn1-c1ccccc1,AC50,[1],"12.6 µM [falling, partial curve]"
COc1ccc2sc(N(Cc3cccnc3)C(=O)c3cccs3)nc2c1,AC50,[1],"15.8 µM [falling, partial curve]"
COc1ccc2sc(N(Cc3cccnc3)C(=O)C3COc4ccccc4O3)nc2c1 (configuration not stated),AC50,[1],"2.51 µM [rising, partial curve, poor fit]"
COc1ccc(-c2nn(-c3ccccc3)cc2C(=O)Nc2nc(CC(C)=O)ns2)cc1,AC50,[1],"20 µM [falling, partial curve]"
CCOC(=O)/C(C#N)=C/c1ccc(-c2ccccc2)o1,AC50,[1],"39.8 µM [falling, single point]"
O=C(OCC(=O)N(C1CCCCC1)C1CCCCC1)c1ccncc1,AC50,[1],"15.8 µM [falling, partial curve]"
O=C(Cn1cc2c(n1)CCCC2)Nc1cc(C(F)(F)F)ccc1Cl,AC50,[1],"15.8 µM [rising, partial curve, poor fit]"
FC(F)(F)c1ccc(N2CCOCC2)c(Nc2nc3ccccc3n3cnnc23)c1,AC50,[1],"10 µM [falling, partial curve]"
Cc1nc(SCc2ccccc2Cl)c(C#N)c(C)c1C,AC50,[1],"0.316 µM [rising, full curve]"
Cc1cc(C)cc(NC(=O)c2sc3nc4n(c(=O)c3c2C)N=C(c2ccc(F)cc2)CS4)c1,AC50,[1],"6.31 µM [rising, single point]"
COC(=O)c1ccccc1NC(=O)CCC(=O)N1CC(C)Sc2ccccc21 (configuration not stated),AC50,[1],"15.8 µM [falling, partial curve]"
COC(=O)C(NC(=O)CCc1c(C)nc2cc(-c3cccc(F)c3)nn2c1C)C(C)C (configuration not stated),AC50,[1],"2.51 µM [falling, partial curve]"
CCC(Cc1ccccc1)NC(=O)CCS(=O)(=O)c1cc2c(cc1Cl)NC(=O)CO2 (configuration not stated),AC50,[1],"25.1 µM [falling, single point]"
CCOc1ccc2c(c1)c(=O)c(C(=O)c1ccc3c(c1)OCO3)cn2Cc1cccc(F)c1,AC50,[1],"39.8 µM [falling, single point]"

# Nine entries from above, as tab-separated lines.
structure (smiles)	measurement	setting	value
Cc1nc(-c2ccc(Cl)cc2)sc1CCNC(=O)C(=O)Nc1ccc2c(c1)OCCO2	AC50	[1]	0.02 µM [rising, full curve]
COc1ccc(C2CC(=O)N(Cc3ccccc3C)c3c2c(C)nn3-c2nc(C)cc(C)n2)c(OC)c1 (configuration not stated)	AC50	[1]	12.6 µM [falling, single point]
COc1ccc(-c2nc3c4ccccc4n(CC(=O)Nc4ccc(C(C)C)cc4)c(=O)n3n2)cc1	AC50	[1]	3.98 µM [rising, single point]
Cc1ccccc1-n1c(SCC(=O)Nc2ccc(Cl)cc2Cl)nc(O)cc1=O	AC50	[1]	20 µM [falling, single point]
Cc1cccc(N(C)S(=O)(=O)c2ccc(-c3cc(C)no3)s2)c1	AC50	measured here: IkB-luc green channel	15.8 µM [rising, partial curve]
same	AC50	measured here: control luc red channel	3.16 µM [rising, partial curve]
CCc1sc(Nc2cccc(C)c2)nc1-c1cc2cccc(OC)c2oc1=O	AC50	[1]	7.94 µM [falling, full curve]
COc1ccc(S(=O)(=O)c2c(O)c(C)cc(NS(=O)(=O)c3ccc(Cl)cc3)c2C(C)C)cc1	AC50	[1]	12.6 µM [falling, partial curve]
Cc1nc(SCc2ccccc2Cl)c(C#N)c(C)c1C	AC50	[1]	0.316 µM [rising, full curve]
